{"source": "PubChem BioAssay AID1508600", "about": "(Functional Genomics Laboratory (NCATS/FGL), 2020)", "note": "The whole screen tested about 53,000 sequences, of which about 3,700 (7%) were called active.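 How the source made its calls: active means gene knockdowns whose robust z-score for IL-1 alpha signal is at least 2 or at most -2, so actives lie on both sides; inactive means the rest.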 Some of the results follow.", "data": [{"assay": "Components of the Cytosolic LPS Sensing Pathway: Gene Identification via Genome-wide siRNA Screen;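 further: robust z of the log signal after scaling to non-targeting control siRNA wells of the plate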", "conditions": "RAW264.7 macrophages, IL-1a HTRF, actives lie on both sides, screened at 100 nM (by protocol), cells primed 5 h with Pam3CSK4 first", "method_in_brief": "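Read-out: IL-1a HTRF on supernatant, divided by plate negative-control median ×100, log-transformed and converted to robust z-score. Cells were RAW264.7 given 100 nM siRNA, Pam3CSK4-primed 5 hours, then LipidA-transfected 24 hour.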", "values": [{"sequence": "CCAUGUGAAUGUCUUUAUUTT against Slc6a20a", "z-score": "inactive: 0.943"}, {"sequence": "GGCCUGUUUUGUACUUUUATT against Polr3gl", "z-score": "inactive: 0.149"}, {"sequence": "GGUUCUACAUGUGAAACAATT against Zfp143", "z-score": "active: -2.15"}, {"sequence": "GCUAUUAUCAUUGUGCAAUTT against Tas2r125", "z-score": "inactive: -0.0849"}, {"sequence": "GGAGACACUUUCCGGAUUATT against Cbl", "z-score": "inactive: -0.361"}, {"sequence": "CCUGACUCGUCUCAAUAAATT against Ccdc157", "z-score": "inactive: -0.0789"}, {"sequence": "GGACCAUACUGUUUGAUUATT against Msl3", "z-score": "inactive: 0.137"}, {"sequence": "GGGUGAUUGAUCACUACUUTT against Olfr279", "z-score": "inactive: 0.784"}, {"sequence": "GGUUUCAGAAGACUCAGUATT against Dlx5", "z-score": "inactive: -0.823"}, {"sequence": "GGAGUUGAGGUGAUUAUCUTT against Olfr1222", "z-score": "active: -2.33"}, {"sequence": "GGCCCUUCUGGACUAUCAUTT against Ccdc83", "z-score": "active: 3.39"}, {"sequence": "GCCCUUAAAACAUAACCACTT against Fgf9", "z-score": "inactive: 0.615"}, {"sequence": "GCAGUGGUAGAACAUCCAATT against Bhmt2", "z-score": "inactive: 0.585"}, {"sequence": "CCGAUGCCAUCAAGUUUGATT against Rps4l", "z-score": "inactive: 0.527"}, {"sequence": "GGCUUGAUCUUCGUAGUGGTT against Arf1", "z-score": "inactive: 0.132"}, {"sequence": "GGAGAAACUCAACUCUCUCTT against Csrnp3", "z-score": "inactive: -0.255"}, {"sequence": "CCACCAACCGUUAGGUUUUTT against Ube2b", "z-score": "inactive: 1.98"}, {"sequence": "GGACGGUAACAACUACAAUTT against Polg", "z-score": "inactive: 1.63"}, {"sequence": "CCUAAGCUGACUCAUAUUGTT against 1700018F24Rik", "z-score": "inactive: -0.663"}, {"sequence": "GCAACCAUUCUGGUAUUACTT against Zfp108", "z-score": "inactive: 0.904"}, {"sequence": "GGACAUGAAUGAAACCUUCTT against Cables1", "z-score": "inactive: -1.1"}, {"sequence": "GGAUGAGGAAAAUGUGUCUTT against Kndc1", "z-score": "inactive: -1.22"}, {"sequence": "CCAAUAAGAGUGCUGAUGGTT against Mrtfa", "z-score": "inactive: -0.241"}, {"sequence": "GGAGAUCUUGAUUAGCGAATT against Fam71e2", "z-score": "inactive: 1.9"}, {"sequence": "GGAAAGAUGAGACAGCCUCTT against Impg1", "z-score": "inactive: -0.0116"}, {"sequence": "GGGACAAGUUGAAUAAAAUTT against Lrrc18", "z-score": "inactive: 0.0044"}, {"sequence": "GCUGUUAUGCAACAUAUAGTT against Mef2c", "z-score": "inactive: -0.455"}, {"sequence": "GCGAGUGCUUGGCUAUUAUTT against Ckap2", "z-score": "inactive: -0.234"}, {"sequence": "GGGAAGAAAUAUGUUAGAUTT against Pip4p2", "z-score": "inactive: 0.92"}, {"sequence": "GGUCAUCAGUCCUGACACUTT against Cyb5r3", "z-score": "inactive: -0.594"}, {"sequence": "CCAGAUGGAAAGCGAAAAATT against Thra", "z-score": "inactive: -0.27"}, {"sequence": "GCAAGUUUGGAGACAAUGATT against Toporsl", "z-score": "inactive: 0.561"}, {"sequence": "GGAACUGAUAAACUACUCUTT against Olfr1126", "z-score": "active: -2.08"}, {"sequence": "GGUGUUUGUUACCAGUAGCTT against Arhgap23", "z-score": "inactive: -0.791"}, {"sequence": "GGUGGUAAUUUUUCUCAGATT against Agxt2", "z-score": "inactive: -1.74"}, {"sequence": "GCUCUAUGAAGUGAUGACGTT against Amph", "z-score": "inactive: -1.69"}, {"sequence": "GUCUAGAAUAAUUGGAGGATT against Klk1b27", "z-score": "inactive: 1.44"}, {"sequence": "CCAAAGAAGGUGAGAUUUGTT against Clstn1", "z-score": "inactive: -0.161"}, {"sequence": "GGUGUGUGGAUCCUCAUGUTT against Chrdl2", "z-score": "inactive: 0.565"}, {"sequence": "GGAGACUGACAAGAAAAUUTT against Gm16367", "z-score": "inactive: -0.967"}, {"sequence": "GGGUGGAAAAUUUCAGUUUTT against Ube2f", "z-score": "inactive: -0.957"}, {"sequence": "GGUAGACAGUGAGUCGGAATT against Trim44", "z-score": "inactive: -0.118"}, {"sequence": "CGAAAGGCCCAUGAAUAAATT against Ascc2", "z-score": "inactive: -1.26"}, {"sequence": "GGCUAUACAGUCUCUGAAATT against Smu1", "z-score": "inactive: 0.178"}, {"sequence": "GCAUUAGAUAGCUGAUGGCTT against 9330132A10Rik", "z-score": "inactive: -0.466"}, {"sequence": "GCAGAUCCGAAUCAAUGAGTT against Twf2", "z-score": "inactive: 0.504"}, {"sequence": "GGCCACAGGUGGAAACUAUTT against Tubb4a", "z-score": "inactive: 1.19"}, {"sequence": "GGCCAGAUGACCUUGUCAUTT against Sult1e1", "z-score": "inactive: -1.23"}, {"sequence": "CCACAAGUCAUCUUAGUGATT against Zfp236", "z-score": "inactive: -0.0754"}, {"sequence": "GGACCUUGGGUCUACAGAATT against Hoxd1", "z-score": "inactive: 0.0461"}, {"sequence": "GCUAGAUGCCGAAAAUCAATT against Obscn", "z-score": "inactive: 0.607"}, {"sequence": "GGAGGGAAAACCACAAGACTT against Dppa4", "z-score": "inactive: 0.514"}, {"sequence": "GGGAAAAAUCAACUUCACUTT against Vmn1r87", "z-score": "inactive: 1.51"}, {"sequence": "GGAAACAUCGAAUCUGAUUTT against Slc11a2", "z-score": "inactive: -1.06"}, {"sequence": "CCCAGUUAGAAUUGUUAUCTT against Snx16", "z-score": "inactive: 1.29"}, {"sequence": "GGAAAUCUGUUCUUGAAGGTT against Pcdhb4", "z-score": "inactive: -0.0811"}, {"sequence": "GGAGGUAUUCUAAAAUCACTT against Helb", "z-score": "inactive: 0.616"}, {"sequence": "GGUGCUAGAAACAUCCUACTT against Fbf1", "z-score": "inactive: -0.515"}, {"sequence": "GGGCAGGACUGAAUCAAGUTT against Dkk2", "z-score": "inactive: 0.0431"}, {"sequence": "GGACUGGCAAUUUUAUAGATT against Pygb", "z-score": "inactive: 0.21"}, {"sequence": "GGCUUGUUCAAGAGAAGAUTT against Slc25a41", "z-score": "inactive: 0.177"}, {"sequence": "GCAUAAAGUUUACGUCCAATT against Irx4", "z-score": "inactive: -0.294"}, {"sequence": "GCAAAGAAGUGUAUGUGUUTT against Olfr273", "z-score": "inactive: 0.0336"}, {"sequence": "GGUUUGACAAGUUCUUUUGTT against Frmpd3", "z-score": "inactive: 0.374"}, {"sequence": "GGGACAUUAUGCUUAUGACTT against Srsf7", "z-score": "inactive: -0.513"}, {"sequence": "CCUACGACCUUCUCUACCATT against Prss23", "z-score": "inactive: -0.181"}, {"sequence": "CGUAAAGUGAUUAUAACACTT against Ciao1", "z-score": "inactive: 0.83"}, {"sequence": "GCUCAACCUGAAAACGUAUTT against Ptcd1", "z-score": "inactive: -0.682"}, {"sequence": "GCGGCUACGUUUAUGAAGATT against Hlcs", "z-score": "inactive: -0.78"}, {"sequence": "CCUUAGUAUGUAUGUGGUATT against Map10", "z-score": "active: -2.65"}, {"sequence": "GCCAAAUGAACUAGCAAUATT against Golm1", "z-score": "inactive: 0.0585"}, {"sequence": "GCAUAGUGGAACAGUCUAUTT against Dynlt3", "z-score": "inactive: 0.829"}, {"sequence": "CGAUGGCCCAUAAAUACUUTT against Gemin4", "z-score": "inactive: -0.774"}, {"sequence": "GGACGAGUUCAAGAGUCUCTT against Elavl3", "z-score": "inactive: 0.064"}, {"sequence": "GGCAUGAGAAACUCUGACATT against Itlnb", "z-score": "inactive: -1.14"}, {"sequence": "GGGACAAGUUCAUCUGAUATT against Rin1", "z-score": "active: 2.06"}, {"sequence": "CCUCAGGUUUAGAGUUCGCTT against Krtap12-1", "z-score": "inactive: 0.329"}, {"sequence": "GCAAAUGAAUCAUGGGUGGTT against Rnf141", "z-score": "inactive: 0.116"}, {"sequence": "GCCCAAUGACAAGAUGUAUTT against Clcn2", "z-score": "inactive: -0.935"}, {"sequence": "GCAAUUCAGACAUACAGGGTT against Trappc8", "z-score": "inactive: 0.0253"}, {"sequence": "GGAUCUCUACAACUACAUATT against Rrm1", "z-score": "inactive: -0.309"}, {"sequence": "GGAAGCAGACAAUUGGUUUTT against Armcx6", "z-score": "inactive: 0.771"}, {"sequence": "GCCACGAGUUCUUUGAAGCTT against Ubxn6", "z-score": "inactive: -0.15"}, {"sequence": "GCGCGUUCCUGAUGUUUACTT against Alg11", "z-score": "inactive: -1.99"}, {"sequence": "CGAUGACACUAUUAUGAGATT against Stpg2", "z-score": "inactive: -0.22"}, {"sequence": "GGCUGAGGGUAAAAAGCUATT against Acyp1", "z-score": "inactive: -0.924"}, {"sequence": "GACUUCGGGCAGCAGCAUATT against Atp5e", "z-score": "inactive: 1.36"}, {"sequence": "CCGUCUGGGCAUGAUGAUATT against Dpep3", "z-score": "inactive: -0.408"}, {"sequence": "CCAGAUGCCCUUAUAUUGGTT against Abhd12", "z-score": "inactive: -1.69"}, {"sequence": "GGAAAAGUGGUGAACGACATT against Tm4sf4", "z-score": "inactive: 0.798"}, {"sequence": "GGAAGAAGAAUACAAAGAUTT against Zfp40", "z-score": "inactive: 0.872"}, {"sequence": "GGGCUCUUUGAUAAUCACUTT against Dnajb11", "z-score": "inactive: -1.06"}, {"sequence": "GGAAAACAGUGGUAGCUUATT against Cnp", "z-score": "inactive: 0.187"}, {"sequence": "GGAACACAGAAGUGAAAAATT against Olfr1260", "z-score": "inactive: -1.02"}, {"sequence": "CCUGGUACAGUUUUCUAUATT against Prss48", "z-score": "inactive: -0.13"}, {"sequence": "GGAGAUGCCUGGUGAUAAATT against N4bp2l2", "z-score": "inactive: 0.118"}, {"sequence": "GGAUGACGAUUGUUUAUCATT against Bcl11a", "z-score": "inactive: -1.04"}, {"sequence": "GGAAAGAGUCAUGGAAAUATT against Supt16", "z-score": "inactive: 0.55"}, {"sequence": "GCCACUACUAAUAGCAUGUTT against 5330438I03Rik", "z-score": "inactive: -1.68"}, {"sequence": "GCUACAAGUGAUCGUCAAUTT against Schip1", "z-score": "inactive: 0.667"}, {"sequence": "CCUCGUCGAGUGGAAAAUUTT against Pxylp1", "z-score": "inactive: -0.574"}, {"sequence": "GGAUUUUUGACUGUGAUUCTT against Pak1ip1", "z-score": "inactive: -1.57"}, {"sequence": "CCGAUGGAUGAUCAAGACATT against Plekhf1", "z-score": "inactive: -1.17"}, {"sequence": "GGAAGACAAUGCAAUAAUUTT against Ttc19", "z-score": "inactive: 0.936"}, {"sequence": "GGCGUAAGGCAAUGUGGGUTT against Clrn1", "z-score": "inactive: -0.0505"}, {"sequence": "GCCAAUAGUAACCAGCCAGTT against Prkab1", "z-score": "active: -2.07"}]}]}
